In this assay the target is GFP-tagged full-length liprin-α1 (WT) (UniProt Q13136). Kind of assay: affinity purification with mass spectrometry.

By UniProt entry, the sequences of proteins in these tests, tags left out. Where a name states a change or a piece, a line headed by the entry shows the natural chain unless it says otherwise.
UniProt Q13136: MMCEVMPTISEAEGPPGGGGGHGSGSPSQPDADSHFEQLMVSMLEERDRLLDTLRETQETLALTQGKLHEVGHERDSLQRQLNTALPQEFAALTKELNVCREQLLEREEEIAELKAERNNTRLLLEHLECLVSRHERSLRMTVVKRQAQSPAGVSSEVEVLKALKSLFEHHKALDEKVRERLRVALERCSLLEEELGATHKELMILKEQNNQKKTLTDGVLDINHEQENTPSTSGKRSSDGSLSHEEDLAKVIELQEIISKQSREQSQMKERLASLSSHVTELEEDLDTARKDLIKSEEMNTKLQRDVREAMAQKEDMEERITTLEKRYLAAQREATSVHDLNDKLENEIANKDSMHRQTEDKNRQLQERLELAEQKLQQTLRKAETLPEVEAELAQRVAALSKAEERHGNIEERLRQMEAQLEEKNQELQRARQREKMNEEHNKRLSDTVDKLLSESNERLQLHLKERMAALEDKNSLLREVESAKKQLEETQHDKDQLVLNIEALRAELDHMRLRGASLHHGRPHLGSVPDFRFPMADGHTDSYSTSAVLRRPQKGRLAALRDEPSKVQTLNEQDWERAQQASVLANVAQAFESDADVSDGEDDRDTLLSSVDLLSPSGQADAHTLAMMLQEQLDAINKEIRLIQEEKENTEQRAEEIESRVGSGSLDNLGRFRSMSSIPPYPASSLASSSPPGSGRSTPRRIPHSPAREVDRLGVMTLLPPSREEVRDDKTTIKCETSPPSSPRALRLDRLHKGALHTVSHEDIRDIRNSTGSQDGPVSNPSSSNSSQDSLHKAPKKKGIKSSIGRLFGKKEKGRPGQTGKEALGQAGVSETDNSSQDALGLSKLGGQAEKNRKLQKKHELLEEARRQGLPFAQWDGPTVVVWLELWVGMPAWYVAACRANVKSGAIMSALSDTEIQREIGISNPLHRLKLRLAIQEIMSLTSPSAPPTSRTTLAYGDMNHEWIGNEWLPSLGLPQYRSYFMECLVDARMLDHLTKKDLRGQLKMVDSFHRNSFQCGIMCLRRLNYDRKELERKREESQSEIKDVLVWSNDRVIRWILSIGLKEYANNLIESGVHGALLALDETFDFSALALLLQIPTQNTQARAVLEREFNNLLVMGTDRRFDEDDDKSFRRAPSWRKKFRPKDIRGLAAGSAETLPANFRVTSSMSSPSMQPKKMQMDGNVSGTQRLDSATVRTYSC
UniProt P67775: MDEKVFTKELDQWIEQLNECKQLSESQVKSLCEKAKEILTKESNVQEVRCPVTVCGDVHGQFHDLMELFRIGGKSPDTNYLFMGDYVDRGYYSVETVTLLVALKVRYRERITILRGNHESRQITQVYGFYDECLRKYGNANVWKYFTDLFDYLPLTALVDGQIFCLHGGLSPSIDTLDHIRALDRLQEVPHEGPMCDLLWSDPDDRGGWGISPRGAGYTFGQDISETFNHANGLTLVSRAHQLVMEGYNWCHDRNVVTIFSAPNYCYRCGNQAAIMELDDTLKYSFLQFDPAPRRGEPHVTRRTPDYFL

Here are results for one substance from paper doi:10.1101/2024.06.18.599485.

Results are given in words; binding and its absence hold for the method and conditions named. In cells and extracts the contact can be indirect. A yes stands for co-enrichment or nearness to the bait. Other partners may have been found.

“PP2A catalytic subunit (PPP2CA/CB) (from UniProt P67775)”: the binding result is given as “binds”.
